The text below walks through data of publication doi:10.1101/2025.07.01.662281.

The target of this experiment is T1, full-length Tmem127-BirA (UniProt Q8BGP5).
T1 sequence: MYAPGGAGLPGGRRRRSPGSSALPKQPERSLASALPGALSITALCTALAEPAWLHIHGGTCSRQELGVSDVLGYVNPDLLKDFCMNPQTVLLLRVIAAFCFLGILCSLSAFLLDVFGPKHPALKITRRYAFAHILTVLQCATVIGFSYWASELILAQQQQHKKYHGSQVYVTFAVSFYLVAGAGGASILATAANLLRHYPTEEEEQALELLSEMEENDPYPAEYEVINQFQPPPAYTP
Description: proximity labelling.

These are yes or no findings as the source states them, for the method shown. In cells and extracts the contact can be indirect. A yes stands for co-enrichment or nearness to the bait. Other partners may have been found.

B1: Tmem87a (protein, UniProt Q8BXN9 22-555)
chain: FPLSFLGAGPAPVFAADRSKWHIPMPSGKGYFNFGKILFRNTTILLKFDGEPCDQSLNITWFLKSADCYNEIYNFKADEIESYLENLKGKKGLSGRYQTSSRLFQNCSELYKAQSFSGDFTHRLPLLGEKQEAKENATNVTFTGDKIAMHEPLQTWQDAPYIFIVHVGISSSKESPKENALSNLFTMTVEVKGPYEYLTLEDYPLMIFFMVMCIVYVLFGVLWLAWSACYWRDLLRIQFWIGAVIFLGMFEKAVFYAEFQNIRYKGESVQNALVLAELLSAVKRSLARTLVIIVSLGYGIVKPRLGVTLHKVVVAGALYLLFSGMEGVLRVTGAQTDLASLAFIPLAFLDTALCWWIFISLTQTMKLLKLRRNIVKLSLYRHFTNTLILAVAASIVFIIWTTMKFRIVTCQSDWRELWVDDAIWRLLFSMILFVIMILWRPSANNQRFAFSPLSEEDEEDEQKEPMLKESFEGMKMRSTKQEPNGTSKVNKAQEDDLKWVEENVPSSVTDVALPALLDSDEERMITHFERSKME
Regarding B1, the binding entry was “binds”.

B2: Slc33a1 (protein, UniProt Q99J27 1-550)
chain: MSPTISHKDSSRQRRSGMFSHALDMKSGPLPPGGWDDSRRDSVGGEGDREVLLGDAGPGDLPKAPRSYRSELSSILLLLFLYVLQGIPLGLAGSIPLILQSKNVSYTDQAFFSFVFWPFSLKLLWAPLVDAVYFKNFGRRKSWLVPTQYTLGIFMIYLSTQVDRLLGNIDGRTPDVVALTVTFFLFEFLAATQDIAVDGWALTMLSRENVGYASTCNSVGQTAGYFLGNVLFLALESADFCNKYLRFQPQPRGIVTLSDFLFFWGTVFLITTTLVALLKKENREASIVKEETQGITDTYKLLFSIIKMPAVLAFCLLILTSKIGFSAADAVTGLKLVEEGVPKEHLALLAVPMVPLQIILPLLISKYTAGPQPLNIFYKAMPYRLLLGLEYALLVWWTPKVEHQGGFPLYYYIIVLLSYALHQVTLYSMYVSIMAFNAKVSDPLIGGTYMTLLNTVSNLGGNWPSTVALWLVDPLTVKECVGASNQNCRTPDAIELCKKLGGSCVTALDGYYVESIICVLIGFGWWFFLGPKFKKLQDEGPSSWKCKRNN
Turning to B2, the binding entry is given as “binds”.

B3: CD8β (protein, UniProt P10300 22-213)
chain: LIQTPSSLLVQTNHTAKMSCEVKSISKLTSIYWLRERQDPKDKYFEFLASWSSSKGVLYGESVDKKRNIILESSDSRRPFLSIMNVKPEDSDFYFCATVGSPKMVFGTGTKLTVVDVLPTTAPTKKTTLKMKKKKQCPFPHPETQKGLTCSLTTLSLLVVCILLLLAFLGVAVYFYCVRRRARIHFMKQFHK
With B3, the binding result is listed as “binds”.
